Results deposited as PubChem BioAssay AID686937 (Drosophila RNAi Screening Center, 2013)
Screen: 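Genes in the fly needed for secretion of protein constitutively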 (primary screen). Cell system: Drosophila S2 cells expressing secreted horseradish peroxidase. Reagents: long dsRNA against Drosophila genes. Timing: about 5.5 days (5 days dsRNA, then 12 h reporter induction). Treatment: reporter expression induced after 5 days of dsRNA, read 12 h later; inducer not stated. Detection: 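Chemiluminescent measurement of peroxidase in the medium 12 h after reporter induction, following 5 days of dsRNA, given as a z-score per plate; higher means more secretion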. Reading the numbers: z-score: higher = more reporter secreted into medium.
The deposit covers about 23,000 reagents; below is a random part of those that have a named target and a result. 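Reduced-secretion tags in replicate 1 do not always agree with the z-scores; no criterion for assigning the tags was given.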 The numbers tell different reagents against one gene apart. Not all columns of the deposit are shown. The record does not give: the amount of reagent.

Depletion of CG2993 #1 gave: z-score, replicate 1 = 0.14. CG2993 #2 showed z-score, replicate 1 = 0.59. After knock-down of CG14770 the results were z-score, replicate 1 = 0.16. pum (pumilio) #1 gave z-score, replicate 1 = 0.4. After knock-down of pum (pumilio) #2, the record shows z-score, replicate 1 = -0.31. Knock-down of pum (pumilio) #3 came out at: z-score, replicate 1 = 0.59.

pum (pumilio) #4 scored z-score, replicate 1 = -0.14. Against pum (pumilio) #5 the deposit lists z-score, replicate 1 = 0.25. For pum (pumilio) #6 the deposit lists z-score, replicate 1 = -0.85; phenotype, replicate 1 = reduced secretion. Silencing of Lcp1 (Larval cuticle protein 1) came out at: z-score, replicate 1 = 0.49. mbf1 (multiprotein bridging factor 1) gave z-score, replicate 1 = 0.3. Silencing of hrm (hermes) came out at: z-score, replicate 1 = 0.23.

Against CYLD (Cylindromatosis), the entry reads z-score, replicate 1 = 0.25. Against sba (six-banded) #1, the values are z-score, replicate 1 = -1.88; phenotype, replicate 1 = reduced secretion. sba (six-banded) #2 gave z-score, replicate 1 = 0.48. With knock-down of CR42546 (pseudo) the results were z-score, replicate 1 = 0.16.

2 entries from above in another layout:
{"gene knocked down":"pum (pumilio)","reagent":6,"z-score, replicate 1":-0.85,"phenotype, replicate 1":"reduced secretion"}
{"gene knocked down":"Lcp1 (Larval cuticle protein 1)","reagent":1,"z-score, replicate 1":0.49}
